# Data as given in PubChem BioAssay AID504467 (National Center for Advancing Translational Sciences (NCATS), 2011).
# Hit rate of the full screen: of about 330,000 compounds, about 7,700 (2.3%) were called active. Inconclusive means that the source gave no clear call. Such entries were picked first, then a sample of the others. Calls follow the shape of the dose curve; as a rule, active = well fitted inhibition curve with a large enough effect; inconclusive = small, poorly fitted or top-dose-only effect, or effect the other way; inactive = flat fitted curve, though single readings scatter. Potencies of inconclusive entries are doubtful fits and often do not repeat.
# Test: qHTS screen for small molecules that inhibit ELG1-dependent DNA repair in human embryonic kidney (HEK293T) cells expressing luciferase-tagged ELG1; also: nearly all actives have a fitted effect of over 55% in size
# Conditions: HEK293T ELG1-luciferase reporter, luminescence, 16 h, DNA damage induced by 5-fluorouridine; activity change, negative = inhibition: at 46.1 µM (top of the series)
# How it was run: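 Luminescence from the luciferase reporter, measured 30 min after ONE-Glo reagent at room temperature, was the read-out. Beforehand, 2,000 cells per well were exposed for 16 hr at 37 °C to 5-fluorouridine together with compound or vehicle.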
# % is scaled to controls: 0 for no effect and ±100 for the full control effect; potency is read from the fitted curve at half-maximal effect.
Structure (SMILES),Potency,"activity change, negative = inhibition"
CC(=O)NC1=NC(=O)CS1,"inconclusive: 1.3 µM [inhibitor, single point]",
O=C(O)CCC(=O)N1CCc2cc(S(=O)(=O)NCc3ccc(Cl)cc3)ccc21,,inactive: 1.72%
COc1cc(CN(C)Cc2nc3cc(C(F)(F)F)ccc3c(=O)[nH]2)ccc1OC(F)F,"inconclusive: 23.1 µM [inhibitor, partial curve]",
CNC(=O)c1cc(C(=O)c2ccccc2Br)c[nH]1,"inconclusive: 23.1 µM [activator, single point]",
CCC(C)NC(=O)CSc1c2c(nc3ccccc13)CCCC2 (stereo not given),,inactive: 14%
NS(=O)(=O)c1ccc(C(=O)Nc2ccc(-c3nc4cccnc4s3)cc2)cc1,"inconclusive: 10.3 µM [activator, partial curve]",
C/C(=N\NC(=O)CCC(=O)O)c1c(-c2ccccc2)c2cc(Br)ccc2[nH]c1=O,,inactive: 0.297%
CC(C)CC[n+]1ccccc1/C=C/c1ccc(N(C)C)cc1,"inconclusive: 0.82 µM [inhibitor, full curve]",
CCC(C)(C)NC(=O)C(c1ccc(OC)cc1)N(Cc1ccco1)C(=O)CCC(=O)Nc1cc(C)on1 (stereo not given),"inconclusive: 13 µM [inhibitor, partial curve]",
Cc1ccc(NC(=O)Cn2ccc([N+](=O)[O-])n2)cc1C,,inactive: -2.79%
[N-]=[N+]=NC[C@H](c1ccccc1)N1CCN(Cc2ccccc2)CCC1=O,,inactive: 5.65%
CC1CC(C)CN(C(=O)c2ccc3c(=O)n(Cc4ccc5c(c4)OCO5)c(=S)[nH]c3c2)C1 (stereo not given),"inconclusive: 23.1 µM [inhibitor, partial curve]",
O=C(Nc1ccc(F)c(Cl)c1)c1ccccc1,"inconclusive: 16.4 µM [activator, partial curve]",
Cc1cccc([C@@H]2[C@@H]3C(=O)N(Cc4ccccc4)C(=O)[C@@H]3[C@]3(Cc4ccccc4)C(=O)N(c4cccc(F)c4)C(=O)N23)c1,"inconclusive: 3.16 µM [activator, partial curve, poor fit]",
O=C(CSc1nncc2ccccc12)Nc1ccc(C(=O)O)cc1,"inconclusive: 20.6 µM [activator, partial curve]",
COc1ccccc1C(=O)c1cc2ccc(O)cc2oc1=O,"inconclusive: 16.4 µM [activator, single point]",
COC(=O)c1ccc(/C=N/Nc2nc(C)c(C)s2)cc1,"inconclusive: 6.51 µM [activator, partial curve]",
CC1CCc2c(sc3nc(CN4CCOCC4)nc(NS(=O)(=O)c4cccc([N+](=O)[O-])c4)c23)C1 (stereo not given),"inconclusive: 23.1 µM [inhibitor, partial curve, poor fit]",
Cc1cc(Cl)ccc1C(=O)C1CCCN(C(=O)c2nonc2C)C1 (stereo not given),"inconclusive: 18.3 µM [inhibitor, partial curve]",
O=C(c1ccc(Cl)cc1)N1CCn2c1nc1ccccc12,"inconclusive: 9.2 µM [activator, partial curve]",
COC(=O)CSc1nnc2n(C3CCCCC3)c(=O)c3c4c(sc3n12)CCCC4,,inactive: -3.25%
COc1ccccc1NS(=O)(=O)c1cc(C(=O)N2CC(C)CC(C)C2)ccc1C (stereo not given),,inactive: -23.5%
COC(=O)c1c(NC(=O)c2cccs2)sc2c1CCCC2,"inconclusive: 29.1 µM [activator, single point]",
Cc1ccc(-n2ncc3c2CCCC3NC(=O)CCc2c(C)noc2C)cc1C (stereo not given),"inconclusive: 9.2 µM [inhibitor, partial curve]",

Structure (SMILES),Potency,"activity change, negative = inhibition"
CCc1cccc2c(C(=O)CCl)c[nH]c12,,inactive: 0.351%
Nc1nc(Cl)nc2c1ncn2C1CC(O)C(CO)O1 (stereo not given),,inactive: 0.66%
CCc1ccc(NC(=O)c2ccccc2SC)cc1,"inconclusive: 16.4 µM [activator, partial curve]",
O=C(Nc1ccc2oc(-c3ccccc3F)nc2c1)c1ccc([N+](=O)[O-])o1,,inactive: 1.86%
CCOC(=O)C1(Cc2ccccc2C)CCCN(S(=O)(=O)c2cccnc2)C1 (stereo not given),"inconclusive: 32.6 µM [inhibitor, partial curve, poor fit]",
CCn1c(C)c(C)c2cc(C(=O)NCCCN3CCCCC3)ccc21,"inconclusive: 29.1 µM [activator, single point]",
COc1ccc(F)cc1S(=O)(=O)NCCCn1ccnc1,,inactive: -6.12%
CSc1ncccc1C(=O)Nc1ccc2nc(C)sc2c1,"inconclusive: 16.4 µM [activator, single point]",
N#CCC(=O)Nc1ccc(C(=O)OCC(=O)Nc2ccc3ccccc3c2)cc1,"inconclusive: 14.6 µM [activator, single point]",
O=C(O)c1cc(NC(=O)c2cccc(F)c2)cc(NC(=O)c2cccc(F)c2)c1,,inactive: -15.8%
CCCCn1c(=O)n(CC(=O)Nc2ccc(OC)c(Cl)c2)c(=O)c2c1nc(CO)n2CCC,"inconclusive: 29.1 µM [inhibitor, single point]",
N/C(=N\c1nc2ccccc2o1)NC(=O)c1ccc(Cl)cc1,"inconclusive: 11.6 µM [activator, single point]",
CSc1ccc(NC(=O)Nc2ccccc2C(N)=O)cc1,"inconclusive: 20.6 µM [activator, partial curve]",
CCN1CCN(C(=S)Nc2sc(C)c(-c3ccccc3)c2C(=O)OC)CC1,active: 16.4 µM,
Fc1ccccc1OCCSc1nc2ccccc2o1,"inconclusive: 4.61 µM [activator, partial curve]",
CC1CCc2c(sc(/N=C/c3cccnc3)c2C(N)=O)C1 (stereo not given),"inconclusive: 13 µM [activator, partial curve]",
CN1CCN(NC(=S)NC2CCCC2)CC1,,inactive: -2.28%
CC1(C)CC(=O)C2=C(C1)OC(N)=C(C#N)C2C#Cc1ccccc1 (stereo not given),,inactive: 27.3%
Cc1nc(N2CCN(C(=O)c3cccs3)CC2)c2c3c(sc2n1)CCCC3,"inconclusive: 32.6 µM [inhibitor, single point]",
COc1ccc(S(=O)(=O)NCC(=O)NC2CC2)cc1OC,,inactive: 3.84%
COc1ccc(C(=O)Oc2c(CN3CCOCC3)cc(Cl)c3cccnc23)cc1,"inconclusive: 20.6 µM [inhibitor, single point]",
CCOC(=O)Cn1nnnc1CN(CCc1ccccc1)Cc1cc2cc(CC)ccc2[nH]c1=O,"inconclusive: 29.1 µM [inhibitor, single point]",
O=C(O)CCCN1C(=O)/C(=C\C(Cl)=C\c2ccccc2)SC1=S,,inactive: -8.94%
CC(C)c1ccc(NC(=O)Cn2c(=O)oc3cccnc32)cc1,"inconclusive: 20.6 µM [activator, single point]",

Structure (SMILES),Potency,"activity change, negative = inhibition"
CC(C)COc1ccc(C(=O)N/N=C/c2ccoc2)cc1,"inconclusive: 29.1 µM [activator, single point]",
CC(C)(C)OC(=O)N1O[C@H]2C[C@@H]1[C@@H]1[C@@H]2N=NN1C12CC3CC(CC(C3)C1)C2,,inactive: 3.21%
CSc1nnc(NC(=O)c2nc(S(=O)(=O)Cc3ccccc3F)ncc2Cl)s1,"inconclusive: 29.1 µM [inhibitor, single point]",
O=C(Nn1cc(C(=O)N2CCN(c3ccccc3F)CC2)c2ccccc2c1=O)c1cnccn1,"inconclusive: 23.1 µM [inhibitor, partial curve, poor fit]",
COc1ccc(Cc2nnc(NC(=O)c3cccs3)s2)cc1,"inconclusive: 20.6 µM [activator, partial curve]",
CCc1nc2nc(C)c(NS(=O)(=O)c3cccs3)c(=O)n2[nH]1,,inactive: -0.848%
Cc1noc(NS(=O)(=O)c2ccc(NC(=O)CSc3nc4ccccc4s3)cc2)c1C,"inconclusive: 4.61 µM [activator, partial curve, poor fit]",
CCOC(=O)Cc1csc(NC(=O)C(C)(C)C)n1,"inconclusive: 11.2 µM [activator, partial curve, poor fit]",
CCN(CC)CCCCCCCCOC(=O)c1cc(OC)c(OC)c(OC)c1,"inconclusive: 3.55 µM [inhibitor, single point]",
c1ccc(-c2nc(C3CCCCC3)no2)cc1,"inconclusive: 13 µM [activator, partial curve]",
CN(C)CCCSc1nc2ccccc2s1,"inconclusive: 29.1 µM [activator, single point]",
COc1cccc(S(=O)(=O)Nc2ccc(C(=O)Nc3ccncc3)cc2)c1,"inconclusive: 16.4 µM [inhibitor, partial curve]",
Cc1ccc(N2NC(C)(c3cccs3)NC2=S)cc1 (stereo not given),"inconclusive: 18.4 µM [activator, partial curve]",
CCCN(CCC)Cc1c(C(=O)N/N=C/c2ccco2)nnn1-c1nonc1N,,inactive: 4.1%
CCCn1c(OC)nc2c1c(=O)n(C)c(=O)n2C,,inactive: -0.746%
CC(=O)NNc1nc(-c2ccc(C)cc2)cs1,"inconclusive: 29.1 µM [activator, single point]",
CC1CCN(C(=O)Cn2c(=O)n(Cc3ccco3)c(=O)c3sccc32)CC1,,inactive: 2.08%
CC1(C)N=C(SCC(=O)Nc2ccccc2)C(c2ccc(Cl)cc2)=N1,"inconclusive: 20.6 µM [inhibitor, single point]",
CC(=O)c1ccc(N2CCN(C(=O)CCCc3nc4ccccc4s3)CC2)cc1,"inconclusive: 29.1 µM [inhibitor, single point]",
OCC1CCCN(C(=S)Nc2ccc(Oc3ccccc3)cc2)C1 (stereo not given),"inconclusive: 6.51 µM [activator, partial curve]",
COc1cccc(CNC(=O)C(C(=O)NCc2cccc(OC)c2)c2ncc(C(F)(F)F)cc2Cl)c1,"inconclusive: 29.1 µM [activator, single point]",
CCOC(=O)N1CCN(c2cc(N3CCN(CC)CC3)c(F)cc2[N+](=O)[O-])CC1C (stereo not given),,inactive: -10.5%

# Four records picked at random from the list so far:
Structure (SMILES),Potency,"activity change, negative = inhibition"
[N-]=[N+]=NC[C@H](c1ccccc1)N1CCN(Cc2ccccc2)CCC1=O,,inactive: 5.65%
CCOC(=O)N1CCN(c2cc(N3CCN(CC)CC3)c(F)cc2[N+](=O)[O-])CC1C (stereo not given),,inactive: -10.5%
N#CCC(=O)Nc1ccc(C(=O)OCC(=O)Nc2ccc3ccccc3c2)cc1,"inconclusive: 14.6 µM [activator, single point]",
COc1ccc(F)cc1S(=O)(=O)NCCCn1ccnc1,,inactive: -6.12%
